{"source": "PubChem BioAssay AID1224828 | NIAID | 2016", "test": "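Knock-downs that increase or decrease LPS-induced p65 nuclear translocation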 (primary screen)", "cells": "mouse RAW264.7 G9 macrophage reporter cells (GFP-p65, Tnf promoter-mCherry)", "knock-down reagent": "siRNA pool against mouse genes, 100 nM", "timing": "2 days siRNA transfection, then 40 min LPS before fixation", "conditions": "LPS (Salmonella minnesota R595) at 10 ng/ml", "detection": "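Microscopy ratio of nuclear to perinuclear-ring GFP-p65 signal, scaled to the plate median; gene score is the average of two replicate robust z-scores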", "reading the numbers": "p65 translocation robust z-score: higher = more nuclear NF-kappaB p65 after LPS than the plate median; nuclear/cytoplasmic p65 ratio: higher = more nuclear NF-kappaB p65", "rule for the call": "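Called active when z exceeds 3.3 or falls under -1.56 (median of Tlr4 controls), giving activity score of at least 50; no calls for control wells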", "meaning of the calls": "active = hit (p65 shift raised or lowered); inactive = no clear change", "note": "The deposit covers about 17,000 reagents; below is a part drawn at random. 762 of them (4.5%) count as active. 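Active calls include both raised and lowered p65 entry, mostly lowered; wells with fewer than 50 cells lack a z-score.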 The raw values are shown without normalisation. No sequences are given here."}
{"gene": "Capn5 (calpain 5)", "p65 translocation robust z-score": 0.25, "nuclear/cytoplasmic p65 ratio, rep 1": 1.54, "nuclear/cytoplasmic p65 ratio, rep 2": 1.92, "low cell count flag": "enough cells to score", "outcome": "inactive"}
{"gene": "Ttc19 (tetratricopeptide repeat domain 19)", "p65 translocation robust z-score": 0.08, "nuclear/cytoplasmic p65 ratio, rep 1": 1.64, "nuclear/cytoplasmic p65 ratio, rep 2": 1.61, "low cell count flag": "enough cells to score", "outcome": "inactive"}
{"gene": "Sumo2 (small ubiquitin-like modifier 2)", "p65 translocation robust z-score": 0.76, "nuclear/cytoplasmic p65 ratio, rep 1": 1.58, "nuclear/cytoplasmic p65 ratio, rep 2": 1.32, "low cell count flag": "enough cells to score", "outcome": "inactive"}
{"gene": "Fkbp6 (FK506 binding protein 6)", "p65 translocation robust z-score": 0.5, "nuclear/cytoplasmic p65 ratio, rep 1": 1.45, "nuclear/cytoplasmic p65 ratio, rep 2": 1.49, "low cell count flag": "enough cells to score", "outcome": "inactive"}
{"gene": "Mrgpra1 (MAS-related GPR, member A1)", "p65 translocation robust z-score": -0.49, "nuclear/cytoplasmic p65 ratio, rep 1": 1.8, "nuclear/cytoplasmic p65 ratio, rep 2": 1.43, "low cell count flag": "enough cells to score", "outcome": "inactive"}
{"gene": "Mbd1 (methyl-CpG binding domain protein 1)", "p65 translocation robust z-score": -1.51, "nuclear/cytoplasmic p65 ratio, rep 1": 1.19, "nuclear/cytoplasmic p65 ratio, rep 2": 1.16, "low cell count flag": "enough cells to score", "outcome": "inactive"}
{"gene": "Cyp27b1 (cytochrome P450, family 27, subfamily b, polypeptide 1)", "p65 translocation robust z-score": 1.2, "nuclear/cytoplasmic p65 ratio, rep 1": 1.71, "nuclear/cytoplasmic p65 ratio, rep 2": 1.47, "low cell count flag": "enough cells to score", "outcome": "inactive"}
{"gene": "C1galt1c1 (C1GALT1-specific chaperone 1)", "nuclear/cytoplasmic p65 ratio, rep 1": 1.65, "nuclear/cytoplasmic p65 ratio, rep 2": 1.33, "low cell count flag": "fewer than 50 cells per well; well left out of scoring", "outcome": "inactive"}
{"gene": "Dynlt2b (dynein light chain Tctex-type 2B)", "p65 translocation robust z-score": 0.63, "nuclear/cytoplasmic p65 ratio, rep 1": 1.64, "nuclear/cytoplasmic p65 ratio, rep 2": 1.52, "low cell count flag": "enough cells to score", "outcome": "inactive"}
{"gene": "Supv3l1 (suppressor of var1, 3-like 1 (S. cerevisiae))", "p65 translocation robust z-score": -0.46, "nuclear/cytoplasmic p65 ratio, rep 1": 1.42, "nuclear/cytoplasmic p65 ratio, rep 2": 1.13, "low cell count flag": "enough cells to score", "outcome": "inactive"}
{"gene": "Zfyve1 (zinc finger, FYVE domain containing 1)", "nuclear/cytoplasmic p65 ratio, rep 1": 1.1, "nuclear/cytoplasmic p65 ratio, rep 2": 1.15, "low cell count flag": "fewer than 50 cells per well; well left out of scoring", "outcome": "inactive"}
{"gene": "Prnp (prion protein)", "p65 translocation robust z-score": 0.39, "nuclear/cytoplasmic p65 ratio, rep 1": 1.51, "nuclear/cytoplasmic p65 ratio, rep 2": 1.49, "low cell count flag": "enough cells to score", "outcome": "inactive"}
{"gene": "Ppp1r8 (protein phosphatase 1, regulatory subunit 8)", "p65 translocation robust z-score": 0.95, "nuclear/cytoplasmic p65 ratio, rep 1": 1.73, "nuclear/cytoplasmic p65 ratio, rep 2": 1.78, "low cell count flag": "enough cells to score", "outcome": "inactive"}
{"gene": "Slc22a2", "p65 translocation robust z-score": 0.57, "nuclear/cytoplasmic p65 ratio, rep 1": 1.48, "nuclear/cytoplasmic p65 ratio, rep 2": 1.37, "low cell count flag": "enough cells to score", "outcome": "inactive"}
{"gene": "Ccdc73 (coiled-coil domain containing 73)", "p65 translocation robust z-score": -0.1, "nuclear/cytoplasmic p65 ratio, rep 1": 1.13, "nuclear/cytoplasmic p65 ratio, rep 2": 1.29, "low cell count flag": "enough cells to score", "outcome": "inactive"}
{"gene": "Cd200r4 (CD200 receptor 4)", "p65 translocation robust z-score": -1.4, "nuclear/cytoplasmic p65 ratio, rep 1": 1.42, "nuclear/cytoplasmic p65 ratio, rep 2": 1.25, "low cell count flag": "enough cells to score", "outcome": "inactive"}
{"gene": "Itpr1 (inositol 1,4,5-trisphosphate receptor 1)", "p65 translocation robust z-score": -1.45, "nuclear/cytoplasmic p65 ratio, rep 1": 1.28, "nuclear/cytoplasmic p65 ratio, rep 2": 1.19, "low cell count flag": "enough cells to score", "outcome": "inactive"}
{"gene": "Or6c214 (olfactory receptor family 6 subfamily C member 214)", "nuclear/cytoplasmic p65 ratio, rep 1": 1.3, "nuclear/cytoplasmic p65 ratio, rep 2": 1.03, "low cell count flag": "fewer than 50 cells per well; well left out of scoring", "outcome": "inactive"}
{"gene": "Slc43a3", "nuclear/cytoplasmic p65 ratio, rep 1": 1.57, "nuclear/cytoplasmic p65 ratio, rep 2": 1.36, "low cell count flag": "fewer than 50 cells per well; well left out of scoring", "outcome": "inactive"}
{"gene": "Dnajc11 (DnaJ heat shock protein family (Hsp40) member C11)", "p65 translocation robust z-score": 1.55, "nuclear/cytoplasmic p65 ratio, rep 1": 1.69, "nuclear/cytoplasmic p65 ratio, rep 2": 1.55, "low cell count flag": "enough cells to score", "outcome": "inactive"}
{"gene": "Trpc4ap", "p65 translocation robust z-score": 1.48, "nuclear/cytoplasmic p65 ratio, rep 1": 1.51, "nuclear/cytoplasmic p65 ratio, rep 2": 1.46, "low cell count flag": "enough cells to score", "outcome": "inactive"}
